Assay results: the supplement of paper PMC11732987, “Enantioselective OTUD7B fragment discovery through chemoproteomics screening and high-throughput optimisation” (Communications Chemistry, 2025)
The other results are listed elsewhere or left out. The data scatter; read single values as rough.

Protein sequences, listed by entry. Tags and fused reporters are not part of them. Lines headed by an entry give the natural chain unless they say otherwise; changes in a name come on top.
UniProt Q9UL03, whole entry, looked up: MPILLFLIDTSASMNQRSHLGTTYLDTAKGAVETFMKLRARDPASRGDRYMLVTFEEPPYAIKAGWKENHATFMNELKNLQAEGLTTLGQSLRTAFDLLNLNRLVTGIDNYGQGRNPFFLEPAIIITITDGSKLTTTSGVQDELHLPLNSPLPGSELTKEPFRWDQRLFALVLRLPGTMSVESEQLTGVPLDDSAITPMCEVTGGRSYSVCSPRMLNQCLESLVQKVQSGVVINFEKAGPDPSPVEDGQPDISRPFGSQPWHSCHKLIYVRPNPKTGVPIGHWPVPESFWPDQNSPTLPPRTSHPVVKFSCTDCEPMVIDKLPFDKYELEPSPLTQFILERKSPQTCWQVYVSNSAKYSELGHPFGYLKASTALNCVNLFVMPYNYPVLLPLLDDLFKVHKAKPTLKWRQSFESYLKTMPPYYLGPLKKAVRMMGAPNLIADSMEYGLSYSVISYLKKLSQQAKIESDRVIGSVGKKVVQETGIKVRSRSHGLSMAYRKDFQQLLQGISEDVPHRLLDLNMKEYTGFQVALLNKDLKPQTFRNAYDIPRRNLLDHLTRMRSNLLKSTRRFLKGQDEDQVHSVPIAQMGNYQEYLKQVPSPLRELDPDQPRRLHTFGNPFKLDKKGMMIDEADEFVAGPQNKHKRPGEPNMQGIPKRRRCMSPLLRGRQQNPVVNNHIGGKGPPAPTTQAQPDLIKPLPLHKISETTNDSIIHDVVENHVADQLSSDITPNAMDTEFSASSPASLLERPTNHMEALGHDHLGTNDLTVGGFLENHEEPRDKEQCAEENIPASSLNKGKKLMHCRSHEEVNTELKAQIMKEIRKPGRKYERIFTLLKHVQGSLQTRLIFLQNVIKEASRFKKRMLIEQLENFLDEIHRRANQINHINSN
UniProt O43464: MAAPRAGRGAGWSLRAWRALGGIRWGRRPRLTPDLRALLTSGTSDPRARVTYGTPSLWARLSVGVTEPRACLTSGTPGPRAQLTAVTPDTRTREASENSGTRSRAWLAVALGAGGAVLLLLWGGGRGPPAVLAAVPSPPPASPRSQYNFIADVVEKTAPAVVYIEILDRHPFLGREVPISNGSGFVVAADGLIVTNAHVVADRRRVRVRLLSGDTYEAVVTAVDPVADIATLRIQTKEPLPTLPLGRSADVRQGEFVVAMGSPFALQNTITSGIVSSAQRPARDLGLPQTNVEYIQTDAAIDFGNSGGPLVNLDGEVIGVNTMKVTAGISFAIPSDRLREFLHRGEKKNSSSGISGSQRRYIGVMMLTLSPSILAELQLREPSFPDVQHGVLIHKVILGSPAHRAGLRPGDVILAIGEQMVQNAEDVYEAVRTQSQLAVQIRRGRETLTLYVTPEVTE
UniProt P48735: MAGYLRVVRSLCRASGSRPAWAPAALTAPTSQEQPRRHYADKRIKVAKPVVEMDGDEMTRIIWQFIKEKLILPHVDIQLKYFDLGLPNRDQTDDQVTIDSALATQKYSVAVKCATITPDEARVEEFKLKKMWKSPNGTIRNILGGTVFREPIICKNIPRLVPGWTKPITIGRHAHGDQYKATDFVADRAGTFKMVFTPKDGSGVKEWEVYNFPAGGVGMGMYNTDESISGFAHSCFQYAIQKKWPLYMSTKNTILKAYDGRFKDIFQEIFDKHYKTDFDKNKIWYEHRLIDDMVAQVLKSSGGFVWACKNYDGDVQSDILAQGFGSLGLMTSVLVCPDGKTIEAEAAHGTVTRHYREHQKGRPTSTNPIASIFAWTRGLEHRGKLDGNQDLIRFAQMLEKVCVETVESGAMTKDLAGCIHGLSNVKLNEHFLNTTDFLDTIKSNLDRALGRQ
UniProt A1L0T0: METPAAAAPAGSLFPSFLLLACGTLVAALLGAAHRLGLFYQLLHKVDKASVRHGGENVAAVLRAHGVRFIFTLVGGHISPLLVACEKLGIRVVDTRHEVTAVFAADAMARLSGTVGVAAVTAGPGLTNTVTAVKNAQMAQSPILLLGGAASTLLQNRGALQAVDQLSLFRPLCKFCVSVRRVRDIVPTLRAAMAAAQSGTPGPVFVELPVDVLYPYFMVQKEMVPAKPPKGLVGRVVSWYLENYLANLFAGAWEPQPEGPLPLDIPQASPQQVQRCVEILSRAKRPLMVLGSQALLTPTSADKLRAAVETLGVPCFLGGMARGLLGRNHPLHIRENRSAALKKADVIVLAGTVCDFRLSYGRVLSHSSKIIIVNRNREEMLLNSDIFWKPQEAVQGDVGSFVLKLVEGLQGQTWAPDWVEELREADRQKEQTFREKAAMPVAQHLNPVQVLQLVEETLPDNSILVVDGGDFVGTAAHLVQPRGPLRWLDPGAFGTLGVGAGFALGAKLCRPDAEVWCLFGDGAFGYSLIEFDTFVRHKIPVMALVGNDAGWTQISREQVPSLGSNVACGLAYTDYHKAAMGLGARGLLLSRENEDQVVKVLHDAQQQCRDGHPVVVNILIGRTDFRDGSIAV
UniProt P50213: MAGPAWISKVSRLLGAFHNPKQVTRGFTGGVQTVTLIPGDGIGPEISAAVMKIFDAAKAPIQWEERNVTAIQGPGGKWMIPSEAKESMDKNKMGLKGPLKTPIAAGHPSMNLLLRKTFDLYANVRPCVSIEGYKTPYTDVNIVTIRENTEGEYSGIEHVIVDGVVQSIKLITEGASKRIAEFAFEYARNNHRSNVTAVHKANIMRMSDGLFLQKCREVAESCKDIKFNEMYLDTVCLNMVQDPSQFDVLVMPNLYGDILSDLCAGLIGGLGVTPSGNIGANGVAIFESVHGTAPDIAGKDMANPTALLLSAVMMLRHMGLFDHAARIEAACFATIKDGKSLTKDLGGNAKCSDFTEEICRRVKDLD
UniProt Q9NQS7: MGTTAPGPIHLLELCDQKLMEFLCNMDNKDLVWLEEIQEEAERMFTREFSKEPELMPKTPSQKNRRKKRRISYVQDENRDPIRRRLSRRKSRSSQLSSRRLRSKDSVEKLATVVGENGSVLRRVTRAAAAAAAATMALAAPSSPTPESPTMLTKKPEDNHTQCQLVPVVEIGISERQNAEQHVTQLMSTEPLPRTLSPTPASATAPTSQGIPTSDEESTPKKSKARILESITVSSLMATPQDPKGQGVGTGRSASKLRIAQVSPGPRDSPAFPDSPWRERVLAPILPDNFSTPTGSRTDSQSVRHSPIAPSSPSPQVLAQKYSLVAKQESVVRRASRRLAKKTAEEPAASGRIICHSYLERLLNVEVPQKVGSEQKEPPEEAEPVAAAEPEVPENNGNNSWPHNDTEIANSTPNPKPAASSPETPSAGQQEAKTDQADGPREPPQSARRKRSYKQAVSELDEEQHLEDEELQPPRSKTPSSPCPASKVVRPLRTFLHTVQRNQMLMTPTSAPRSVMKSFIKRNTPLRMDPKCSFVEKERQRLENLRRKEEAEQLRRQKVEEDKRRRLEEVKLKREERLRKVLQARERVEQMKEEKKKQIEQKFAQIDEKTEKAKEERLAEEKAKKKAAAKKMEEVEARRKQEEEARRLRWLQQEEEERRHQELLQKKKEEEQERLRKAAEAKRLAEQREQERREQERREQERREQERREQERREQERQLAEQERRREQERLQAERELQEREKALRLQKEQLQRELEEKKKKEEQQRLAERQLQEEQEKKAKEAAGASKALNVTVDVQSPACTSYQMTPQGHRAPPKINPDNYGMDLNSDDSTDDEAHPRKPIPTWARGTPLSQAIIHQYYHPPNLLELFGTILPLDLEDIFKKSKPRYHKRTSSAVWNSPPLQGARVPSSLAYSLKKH
UniProt Q8N201, whole entry, looked up: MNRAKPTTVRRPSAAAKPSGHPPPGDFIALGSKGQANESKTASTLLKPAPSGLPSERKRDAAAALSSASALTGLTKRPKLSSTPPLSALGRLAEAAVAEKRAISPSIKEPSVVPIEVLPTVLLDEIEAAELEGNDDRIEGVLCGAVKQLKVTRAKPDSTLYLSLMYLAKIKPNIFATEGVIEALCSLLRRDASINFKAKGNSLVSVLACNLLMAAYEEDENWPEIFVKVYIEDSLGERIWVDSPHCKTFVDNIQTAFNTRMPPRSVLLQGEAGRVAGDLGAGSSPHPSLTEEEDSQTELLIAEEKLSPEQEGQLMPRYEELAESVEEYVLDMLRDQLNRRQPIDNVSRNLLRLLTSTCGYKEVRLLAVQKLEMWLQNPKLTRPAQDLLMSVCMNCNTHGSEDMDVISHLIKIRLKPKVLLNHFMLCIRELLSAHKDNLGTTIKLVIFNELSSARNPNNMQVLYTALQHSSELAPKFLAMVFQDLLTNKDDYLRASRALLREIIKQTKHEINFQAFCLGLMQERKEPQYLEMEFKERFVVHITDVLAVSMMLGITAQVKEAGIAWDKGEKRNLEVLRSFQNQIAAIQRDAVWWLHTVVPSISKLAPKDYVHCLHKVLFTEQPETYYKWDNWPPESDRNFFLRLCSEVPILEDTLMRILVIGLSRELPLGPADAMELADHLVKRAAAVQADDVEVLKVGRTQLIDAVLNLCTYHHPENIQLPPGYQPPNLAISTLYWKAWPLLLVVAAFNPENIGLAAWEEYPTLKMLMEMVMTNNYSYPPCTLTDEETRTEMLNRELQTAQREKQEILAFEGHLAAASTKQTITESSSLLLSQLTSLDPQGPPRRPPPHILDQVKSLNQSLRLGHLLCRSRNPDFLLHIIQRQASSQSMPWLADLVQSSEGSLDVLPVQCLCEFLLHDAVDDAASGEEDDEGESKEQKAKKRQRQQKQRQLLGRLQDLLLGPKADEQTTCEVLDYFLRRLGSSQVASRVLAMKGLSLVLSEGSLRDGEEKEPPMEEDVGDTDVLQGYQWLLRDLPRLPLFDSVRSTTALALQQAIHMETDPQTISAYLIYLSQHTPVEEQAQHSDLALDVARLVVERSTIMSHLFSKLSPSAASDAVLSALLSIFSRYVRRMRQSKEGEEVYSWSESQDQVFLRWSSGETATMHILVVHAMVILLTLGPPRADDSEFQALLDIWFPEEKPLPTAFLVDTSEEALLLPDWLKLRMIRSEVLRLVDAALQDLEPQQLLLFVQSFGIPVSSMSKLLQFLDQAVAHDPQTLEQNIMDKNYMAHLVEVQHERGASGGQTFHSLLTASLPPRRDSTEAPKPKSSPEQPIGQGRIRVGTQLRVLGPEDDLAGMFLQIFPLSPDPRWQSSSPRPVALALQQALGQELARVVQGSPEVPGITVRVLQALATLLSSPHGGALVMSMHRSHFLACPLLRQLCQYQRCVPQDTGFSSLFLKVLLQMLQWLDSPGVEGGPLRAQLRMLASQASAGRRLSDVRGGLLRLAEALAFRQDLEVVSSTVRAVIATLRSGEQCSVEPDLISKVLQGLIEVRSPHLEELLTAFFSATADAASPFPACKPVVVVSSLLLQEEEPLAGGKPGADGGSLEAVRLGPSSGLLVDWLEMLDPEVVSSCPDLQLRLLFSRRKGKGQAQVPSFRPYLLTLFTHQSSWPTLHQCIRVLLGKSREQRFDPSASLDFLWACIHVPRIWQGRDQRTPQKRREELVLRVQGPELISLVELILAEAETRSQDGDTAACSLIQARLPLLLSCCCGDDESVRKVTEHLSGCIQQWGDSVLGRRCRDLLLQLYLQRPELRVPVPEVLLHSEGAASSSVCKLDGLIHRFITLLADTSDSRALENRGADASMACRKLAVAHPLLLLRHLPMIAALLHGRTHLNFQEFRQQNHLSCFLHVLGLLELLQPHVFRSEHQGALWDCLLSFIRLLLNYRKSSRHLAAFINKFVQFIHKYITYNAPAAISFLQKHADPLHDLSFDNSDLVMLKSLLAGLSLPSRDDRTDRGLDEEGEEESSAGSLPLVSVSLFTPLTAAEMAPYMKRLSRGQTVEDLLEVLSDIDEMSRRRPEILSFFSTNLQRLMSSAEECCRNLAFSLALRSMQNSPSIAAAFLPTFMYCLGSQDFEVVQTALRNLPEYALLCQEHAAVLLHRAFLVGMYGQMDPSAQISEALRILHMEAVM
UniProt P38646: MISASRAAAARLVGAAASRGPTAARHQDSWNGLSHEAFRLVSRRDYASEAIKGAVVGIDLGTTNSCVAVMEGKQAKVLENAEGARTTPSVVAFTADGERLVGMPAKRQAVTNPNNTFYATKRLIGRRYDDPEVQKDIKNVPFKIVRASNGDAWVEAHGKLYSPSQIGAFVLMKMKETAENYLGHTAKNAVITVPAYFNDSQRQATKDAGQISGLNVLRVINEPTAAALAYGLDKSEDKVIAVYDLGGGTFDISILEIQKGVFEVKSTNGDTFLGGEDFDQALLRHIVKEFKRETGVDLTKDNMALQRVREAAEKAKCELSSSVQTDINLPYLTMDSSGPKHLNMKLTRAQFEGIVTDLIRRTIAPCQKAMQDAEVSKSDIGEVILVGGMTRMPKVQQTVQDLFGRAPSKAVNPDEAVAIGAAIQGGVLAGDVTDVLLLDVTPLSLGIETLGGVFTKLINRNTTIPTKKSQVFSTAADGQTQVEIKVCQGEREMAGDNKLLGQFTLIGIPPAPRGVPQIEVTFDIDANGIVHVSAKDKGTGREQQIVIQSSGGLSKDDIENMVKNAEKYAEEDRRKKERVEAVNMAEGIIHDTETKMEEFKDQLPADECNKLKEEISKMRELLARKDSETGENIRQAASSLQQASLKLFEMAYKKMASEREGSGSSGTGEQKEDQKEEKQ

The targets below were run with ClCC(=O)N[C@H]1CCCc2ccccc12 (assay: log2 mean competition ratio of IA-DTB cysteine labelling (DMSO/compound) (log2 ratio); higher = stronger cysteine engagement by compound). Conditions: 50 µM; treatment time: 4 h; cell line lysate: HEK293T.
Description: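 IA-DTB competitive cysteine chemoproteomics in HEK293T RIPA lysate. Lysates were treated with compound 29 or 30 at 50 or 200 µM for 4 h, then IA-DTB (500 µM, 1 h), trypsin-digested, NeutrAvidin-enriched and analysed by diaPASEF. Competition ratio = intensity DMSO / intensity compound (n=4 treated, n=64 DMSO); binding: mean log2 CR ≥ 1 and p ≤ 0.05 plus QC filters. Target is the cysteine site.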

Row | Target | log2 mean competition ratio
1 | INTS2 C48 (UniProt Q9H0H0) | -0.163
2 | INTS6 C783 (UniProt Q9UL03) | -0.323
3 | HTRA2 C71 (UniProt O43464) | -0.226
4 | IDH2 C154 (UniProt P48735) | 0.488
5 | HTT C431 (UniProt P42858) | 0.355
6 | ILVBL C608 (UniProt A1L0T0) | -0.00745
7 | IDH3A C331 (UniProt P50213) | 0.035
8 | IQGAP2 C1449 (UniProt Q13576) | 0.0463
9 | INTS6 C659 (UniProt Q9UL03) | -0.0706
10 | IPO5 C473 | 0.124
11 | INCENP C15 (UniProt Q9NQS7) | 0.177
12 | INTS1 C1440 (UniProt Q8N201) | 0.288
13 | INTS4 C156 (UniProt Q96HW7) | -0.199
14 | INTS1 C1433 (UniProt Q8N201) | 0.621
15 | HSPA9 C608 (UniProt P38646) | -0.213
16 | HSPBP1 C310 | 0.0812
17 | HPS3 C915 (UniProt Q969F9) | -0.266
18 | IGF2BP3 C44 (UniProt O00425) | 0.00357
19 | HUWE1 C19 | -0.233
20 | HUWE1 C1832 | -0.364

Same assay, conditions: 200 µM; treatment time: 4 h; cell line lysate: HEK293T

Row | Target | log2 mean competition ratio
21 | INTS2 C48 (UniProt Q9H0H0) | 0.156
22 | INTS6 C783 (UniProt Q9UL03) | -0.176
23 | HTRA2 C71 (UniProt O43464) | -0.179
24 | IDH2 C154 (UniProt P48735) | 0.235
25 | HTT C431 (UniProt P42858) | 0.0937
26 | ILVBL C608 (UniProt A1L0T0) | 0.0591
27 | IDH3A C331 (UniProt P50213) | -0.188
28 | IQGAP2 C1449 (UniProt Q13576) | -0.0564
29 | INTS6 C659 (UniProt Q9UL03) | 0.648
30 | IPO5 C473 | 0.0792
31 | INCENP C15 (UniProt Q9NQS7) | -0.105
32 | INTS1 C1440 (UniProt Q8N201) | 0.107
33 | INTS4 C156 (UniProt Q96HW7) | 0.125
34 | INTS1 C1433 (UniProt Q8N201) | 0.722
35 | HSPA9 C608 (UniProt P38646) | -0.205
36 | HSPBP1 C310 | 0.408
37 | HPS3 C915 (UniProt Q969F9) | -0.09
38 | IGF2BP3 C44 (UniProt O00425) | 0.14
39 | HUWE1 C19 | 0.767
40 | HUWE1 C1832 | 0.184
